The values below come from PMC9278077.

Sequences of proteins named here, by UniProt entry; tags and fusion partners are left off.
UniProt Q5TKR9: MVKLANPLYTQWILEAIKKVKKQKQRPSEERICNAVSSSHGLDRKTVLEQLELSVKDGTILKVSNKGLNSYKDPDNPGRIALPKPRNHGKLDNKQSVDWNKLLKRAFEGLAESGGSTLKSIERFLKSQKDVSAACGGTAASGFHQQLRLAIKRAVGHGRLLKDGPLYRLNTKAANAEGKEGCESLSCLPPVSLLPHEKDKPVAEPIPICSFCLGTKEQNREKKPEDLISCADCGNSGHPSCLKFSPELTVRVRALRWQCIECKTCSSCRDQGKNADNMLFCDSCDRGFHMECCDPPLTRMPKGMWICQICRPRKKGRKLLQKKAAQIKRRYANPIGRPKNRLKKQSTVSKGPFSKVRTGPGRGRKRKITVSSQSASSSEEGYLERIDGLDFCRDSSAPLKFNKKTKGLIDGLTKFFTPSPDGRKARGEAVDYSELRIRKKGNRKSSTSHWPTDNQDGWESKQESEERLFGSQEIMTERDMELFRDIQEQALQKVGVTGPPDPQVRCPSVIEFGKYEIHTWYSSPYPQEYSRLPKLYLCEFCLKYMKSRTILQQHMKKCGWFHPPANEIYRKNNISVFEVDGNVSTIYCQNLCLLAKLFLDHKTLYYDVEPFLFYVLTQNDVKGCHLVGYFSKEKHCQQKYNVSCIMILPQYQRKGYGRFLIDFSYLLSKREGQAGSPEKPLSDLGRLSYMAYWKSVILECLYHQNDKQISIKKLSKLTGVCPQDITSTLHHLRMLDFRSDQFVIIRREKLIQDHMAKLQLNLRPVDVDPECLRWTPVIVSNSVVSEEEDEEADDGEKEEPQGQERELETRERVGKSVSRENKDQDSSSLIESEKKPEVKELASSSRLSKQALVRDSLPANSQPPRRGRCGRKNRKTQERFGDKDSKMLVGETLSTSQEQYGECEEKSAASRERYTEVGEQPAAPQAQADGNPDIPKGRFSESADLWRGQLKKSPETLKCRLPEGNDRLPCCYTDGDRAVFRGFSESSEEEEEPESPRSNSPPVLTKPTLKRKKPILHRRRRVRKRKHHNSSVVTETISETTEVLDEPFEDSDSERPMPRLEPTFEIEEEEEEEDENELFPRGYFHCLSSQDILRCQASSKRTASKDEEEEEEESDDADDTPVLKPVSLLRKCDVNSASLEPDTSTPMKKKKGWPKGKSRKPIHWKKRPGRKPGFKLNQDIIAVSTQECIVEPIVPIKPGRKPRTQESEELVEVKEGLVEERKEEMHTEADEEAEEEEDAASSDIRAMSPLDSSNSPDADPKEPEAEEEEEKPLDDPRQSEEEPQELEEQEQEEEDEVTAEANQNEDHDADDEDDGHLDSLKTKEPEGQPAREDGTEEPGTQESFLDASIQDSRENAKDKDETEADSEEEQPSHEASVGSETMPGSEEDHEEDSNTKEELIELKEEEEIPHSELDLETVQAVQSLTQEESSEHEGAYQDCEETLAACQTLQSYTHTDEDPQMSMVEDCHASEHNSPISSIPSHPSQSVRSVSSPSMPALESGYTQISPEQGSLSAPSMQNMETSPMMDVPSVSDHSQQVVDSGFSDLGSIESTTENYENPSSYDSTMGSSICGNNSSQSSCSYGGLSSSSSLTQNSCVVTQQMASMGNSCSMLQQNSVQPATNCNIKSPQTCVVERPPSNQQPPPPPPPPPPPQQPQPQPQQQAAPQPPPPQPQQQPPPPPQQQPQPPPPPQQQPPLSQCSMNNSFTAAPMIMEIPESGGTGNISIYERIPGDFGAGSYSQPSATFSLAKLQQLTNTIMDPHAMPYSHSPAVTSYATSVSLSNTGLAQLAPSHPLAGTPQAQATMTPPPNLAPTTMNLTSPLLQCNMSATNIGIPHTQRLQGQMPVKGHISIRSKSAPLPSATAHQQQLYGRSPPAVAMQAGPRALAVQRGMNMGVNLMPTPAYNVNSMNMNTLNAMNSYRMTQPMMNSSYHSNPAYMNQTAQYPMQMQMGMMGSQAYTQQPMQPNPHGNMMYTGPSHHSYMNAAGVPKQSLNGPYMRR

This experiment deals with Dual-specificity tyrosine regulated kinase 1A (DYRK1A), endogenous in rat neonatal cardiomyocytes (rat (endogenous in neonatal cardiomyocytes)) (UniProt Q63470). Nature of the experiment: affinity purification with mass spectrometry; DYRK1A complexes immunoprecipitated from lysates of rat neonatal cardiomyocytes in primary culture (protein A/G agarose); trypsin digest, tandem mass tag labelling, LC-MS/MS.

Results are given in words; binding and its absence hold for the method and conditions named. Binding seen in cells or lysates may run through a third protein. Here binding means that the protein was enriched with, or labelled near, the bait; the list need not be complete.

For “Lysine acetyltransferase 6A (KAT6A), endogenous in rat neonatal cardiomyocytes (from UniProt Q5TKR9 1-1998)”, the binding entry is “binds”.
